The conditions of series [1]: cited from earlier work; for concentration in the smoke stream: IARC 1986, depending on filtration; for Concentration Range in cigarette smoke: filtered cigarettes.
Series [2] can be described thus: transfer of cyclohexanol into smoke, standard smoking machine (Example 6).
Series [3] is described as follows: transfer of cyclohexanol to cigarette smoke, gas chromatography (Example 7).
The nature of series [4]: calculated air concentrations of cyclohexanol from cigarette smoke. Conditions: 0.500 mg cyclohexanol per cigarette.

SMILES strings stand for the structures. “Also recorded” adds a separate entry of the source.

For the compound `O=NN1CCCC1c1cccnc1` (centres unmarked) [NNN, N'-Nitrosonoronicotine], in series [1], the “concentration in the smoke stream” value is given as 0.2-3.7 ug per cigarette and the “Concentration Range in cigarette smoke” value is 50-310 Nanograms per Cigarette.
`CN(CCCC(=O)c1cccnc1)N=O` [NNK]: in series [1], the “concentration in the smoke stream” value is on record as 0.12-0.44 ug per cigarette and the “Concentration Range in cigarette smoke” value was 30-150 Nanograms per Cigarette.
Consider `OC1CCCCC1` [Cyclohexanol], for which the smoked concentration in series [2] (620 micrograms per cigarette) is listed as 197 milligrams per cubic meter. Further, the smoked concentration in series [2] (8750 micrograms loaded per cigarette) is recorded as 2778 milligrams of cyclohexanol per cubic meter. Besides, the “part of initial load on the tobacco transferred into inhaled smoke” value in series [2] (one cigarette) was “Approximately ten; also recorded: five to twenty”. Further, in series [3] (713.7 ug/cig. loaded), the “% Transfer, Non-particulate” value came out at 4.3%; the “% Transfer, Particulate” value amounted to 2.3%; the “% Transfer, Total Transfer” value turned out to be 6.6%; the “Amount Recovered in Smoke, Non-particulate” value is 30.8 ug/cigarette. In series [3] (713.7 ug/cig. loaded), the “Amount Recovered in Smoke, Particulate” value came out at 16.7 ug/cigarette and the “Amount Recovered in Smoke, Total” value was determined as 47.5 ug/cigarette. The “Cyclohexanol concentration in smoke” value in series [3] (Fully Smoked Cigarette) was 118.9 µg/L. Besides, in series [3] (Instant ("Puff") Exposure), the “Cyclohexanol concentration in smoke” value stood at 9.9 µg/L. Besides, in series [4], the “amount transferred to the smoke” value is listed as 0.050 mg and the “percentage transferred to the smoke” value is given as 10%.

Values taken from patent US5016655A, “Cigarette manufacturing process” (priority 1989, dated 1991).
